Measured values as given in US20080300231A1 (priority 2005, published 2008).

Experiment: general procedure: solution-phase peptide synthesis; PyBOP, N,N-diisopropylethylamine

| Substance | step yield (late stage modification step, tetrahydrochloride) | step yield (coupling step, hydrochloride) |
| --- | --- | --- |
| 1-{[(8S,11S,14S)-14-Amino-11-(3-aminopropyl)-5,17-dihydroxy-10,13-dioxo-9,12-diazatricyclo[14.3.1.1^2,6]henicosa-1(20),2(21),3,5,16,18-hexaen-8-yl]carbonyl}-L-prolyl-N-(2-aminoethyl)-L-ornithinamide tetrahydrochloride | 96% of theory |  |
| 1-{[(8S,11S,14S)-14-[(tert-Butoxycarbonyl)amino]-11-{3-[(tert-butoxycarbonyl)amino]-propyl}-5,17-dihydroxy-10,13-dioxo-9,12-diazatricyclo[14.3.1.1^2,6]henicosa-1(20), 2(21),3,5,16,18-hexaen-8-yl]carbonyl}-L-prolyl-N^5-(tert-butoxycarbonyl)-N-{2-[(tert-butoxycarbonyl)amino]ethyl}-L-ornithinamide |  | 66% of theory |
